According to patent US20090018059:
Results from cells or extracts need not show a direct contact. For some assays here: Negatives hold for the conditions tested.

Chains of the proteins cited; added tags and fusions are not shown. Lines headed by an entry give the natural chain unless they say otherwise; changes in a name come on top. Chains listed by the source or under a name are the forms on record and can include a tag or linker.
UniProt P20263, whole entry: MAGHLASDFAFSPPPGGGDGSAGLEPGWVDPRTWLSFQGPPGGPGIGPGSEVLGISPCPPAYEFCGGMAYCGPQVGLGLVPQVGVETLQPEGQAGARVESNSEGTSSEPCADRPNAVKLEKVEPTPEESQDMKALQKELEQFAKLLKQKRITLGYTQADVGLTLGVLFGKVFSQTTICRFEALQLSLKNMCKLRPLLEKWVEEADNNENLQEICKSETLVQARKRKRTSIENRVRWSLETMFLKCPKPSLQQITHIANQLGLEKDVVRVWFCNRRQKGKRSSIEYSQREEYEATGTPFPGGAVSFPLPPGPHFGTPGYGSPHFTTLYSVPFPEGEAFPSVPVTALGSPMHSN
UniProt P48432: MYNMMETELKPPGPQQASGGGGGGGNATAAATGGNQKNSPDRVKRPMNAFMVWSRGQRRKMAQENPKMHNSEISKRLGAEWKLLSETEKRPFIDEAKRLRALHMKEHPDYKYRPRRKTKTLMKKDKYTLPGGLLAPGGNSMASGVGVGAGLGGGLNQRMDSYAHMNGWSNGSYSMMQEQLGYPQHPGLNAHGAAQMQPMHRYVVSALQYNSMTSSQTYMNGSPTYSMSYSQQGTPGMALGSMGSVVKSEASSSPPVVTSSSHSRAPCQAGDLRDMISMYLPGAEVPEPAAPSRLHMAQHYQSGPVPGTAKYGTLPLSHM
Oct4/Sox2 heterodimer (Mus musculus), one chain, as listed by the source, chain 1 of 2: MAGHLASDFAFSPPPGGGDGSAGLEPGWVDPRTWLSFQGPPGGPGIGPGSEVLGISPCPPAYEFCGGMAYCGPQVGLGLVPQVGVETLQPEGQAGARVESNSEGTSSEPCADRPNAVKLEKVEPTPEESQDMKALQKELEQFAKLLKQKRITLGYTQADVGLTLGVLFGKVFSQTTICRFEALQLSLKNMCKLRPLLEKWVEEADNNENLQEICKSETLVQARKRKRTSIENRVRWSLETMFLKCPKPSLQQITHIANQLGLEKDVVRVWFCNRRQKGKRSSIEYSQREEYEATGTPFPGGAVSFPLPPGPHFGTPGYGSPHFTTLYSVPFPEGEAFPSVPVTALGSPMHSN
Oct4/Sox2 heterodimer (Mus musculus), one chain, as listed by the source, chain 2 of 2: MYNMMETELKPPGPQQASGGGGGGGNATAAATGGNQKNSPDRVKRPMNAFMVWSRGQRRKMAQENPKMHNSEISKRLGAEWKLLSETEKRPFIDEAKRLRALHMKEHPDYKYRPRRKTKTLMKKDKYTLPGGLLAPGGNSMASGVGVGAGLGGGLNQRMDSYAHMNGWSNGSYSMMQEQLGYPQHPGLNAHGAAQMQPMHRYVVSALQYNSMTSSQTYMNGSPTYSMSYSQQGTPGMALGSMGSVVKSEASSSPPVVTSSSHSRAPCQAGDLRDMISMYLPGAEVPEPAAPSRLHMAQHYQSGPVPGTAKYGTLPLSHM

Columns and labels:
[1] = system: Oct4/Sox2 heterodimer (Mus musculus); test: competition with a labelled probe; conditions: protein in an extract
[2] = target: Oct4 (Pou5f1) (Mus musculus) (UniProt P20263); test: competition with a labelled probe; conditions: protein in an extract
Sox2 (Mus musculus) [3] = target: Sox2 (Mus musculus) (UniProt P48432); test: competition with a labelled probe; conditions: protein in an extract
[4] = system: Oct4/Sox2 heterodimer (Mus musculus); test: EMSA; conditions: complex C, protein in an extract
[5] = target: Oct4 (Pou5f1) (Mus musculus) (UniProt P20263); test: EMSA; conditions: complex A, protein in an extract
Sox2 (Mus musculus) [6] = target: Sox2 (Mus musculus) (UniProt P48432); test: EMSA; conditions: complex E, Sox2 monomer; protein in an extract
[7] = 20-fold excess non-specific competitor

“CTGCAGGTGGGATTAACTGTGAATTCA (double strand) [NNS]”: no binding [1, 7]; no binding [2, 7]; no binding (Sox2 (Mus musculus) [3]; 20-fold excess non-specific competitor, FOS probe).
“CTTACAGCTTCTTTCAAATTAACCTGTCCATGGTGGA (double strand) [NmOmS]”: no binding ([1]; 20-fold excess, variant of NOS); no binding ([2]; 20-fold excess, variant of NOS); no binding (Sox2 (Mus musculus) [3]; 20-fold excess, FOS probe, variant of NOS).
“CTTACAGCTTCTTTCAAATTACAATGTCCATGGTGGA (double strand) [NmOS]”: no binding ([1]; 20-fold excess, fails to compete, variant of NOS); no binding ([2]; 20-fold excess unlabeled competitor, octamer mutant fails to compete, variant of NOS); binds (Sox2 (Mus musculus) [3]; 20-fold excess, still competes Sox2 monomer on FOS, variant of NOS).
“CTTACAGCTTCTTTTGCATTAACCTGTCCATGGTGGA (double strand) [NOmS]”: no binding ([1]; variant of NOS); binds ([2]; 20-fold excess, Oct4 monomer still competed, variant of NOS); no binding (Sox2 (Mus musculus) [3]; 20-fold excess, fails to compete Sox2 monomer on FOS, variant of NOS).
“CTTACAGCTTCTTTTGCATTACAATGTCCATGGTGGA (double strand) [NOS]”: binds ([4]; supershifted by both antibodies); binds ([5]; supershifted by anti-Oct4, poly-dGdC, RT).
“TTTAAGTATCCCATTAGCATCCAAACAAAGAGTTTTC (double strand) [FOS]”: binds [4]; binds [5]; binds (Sox2 (Mus musculus) [6]).
